This assay concerns the target SUPT7L-Halo-(FLAG)3 (human (endogenous in HeLa)) (UniProt O94864). Put plainly: affinity purification with mass spectrometry; same FLAG purification of hSAGA by SUPT7L-Halo-(FLAG)3; about 1 µg digested with trypsin or chymotrypsin, Orbitrap Elite, Sequest and Scaffold.

The chains behind the UniProt entries cited, without tags or fusion partners.
UniProt O94864: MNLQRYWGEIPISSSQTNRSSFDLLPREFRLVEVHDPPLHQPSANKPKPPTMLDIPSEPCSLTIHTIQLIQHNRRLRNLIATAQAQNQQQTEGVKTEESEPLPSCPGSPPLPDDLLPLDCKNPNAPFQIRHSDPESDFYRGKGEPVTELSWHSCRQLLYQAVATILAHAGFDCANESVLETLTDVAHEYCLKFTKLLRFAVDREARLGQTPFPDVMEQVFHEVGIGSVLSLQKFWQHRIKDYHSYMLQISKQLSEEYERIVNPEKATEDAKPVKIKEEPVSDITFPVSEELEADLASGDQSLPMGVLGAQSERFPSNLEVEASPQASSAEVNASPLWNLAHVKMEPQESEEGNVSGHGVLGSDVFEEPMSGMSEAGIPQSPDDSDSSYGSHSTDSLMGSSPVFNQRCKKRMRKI
UniProt Q16514: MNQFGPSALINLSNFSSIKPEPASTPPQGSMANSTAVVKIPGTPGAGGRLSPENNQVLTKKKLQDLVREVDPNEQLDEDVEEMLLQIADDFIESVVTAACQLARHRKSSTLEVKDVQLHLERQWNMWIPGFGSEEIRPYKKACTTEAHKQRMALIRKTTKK
UniProt O75486: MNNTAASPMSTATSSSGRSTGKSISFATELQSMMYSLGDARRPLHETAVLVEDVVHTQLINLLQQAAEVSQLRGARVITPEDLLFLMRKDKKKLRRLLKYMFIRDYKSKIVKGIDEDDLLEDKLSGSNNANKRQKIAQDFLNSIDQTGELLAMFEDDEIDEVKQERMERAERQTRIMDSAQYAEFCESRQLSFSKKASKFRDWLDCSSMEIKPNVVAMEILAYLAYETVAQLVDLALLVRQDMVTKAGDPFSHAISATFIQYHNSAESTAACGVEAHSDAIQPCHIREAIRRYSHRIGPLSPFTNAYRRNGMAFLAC
UniProt Q15393: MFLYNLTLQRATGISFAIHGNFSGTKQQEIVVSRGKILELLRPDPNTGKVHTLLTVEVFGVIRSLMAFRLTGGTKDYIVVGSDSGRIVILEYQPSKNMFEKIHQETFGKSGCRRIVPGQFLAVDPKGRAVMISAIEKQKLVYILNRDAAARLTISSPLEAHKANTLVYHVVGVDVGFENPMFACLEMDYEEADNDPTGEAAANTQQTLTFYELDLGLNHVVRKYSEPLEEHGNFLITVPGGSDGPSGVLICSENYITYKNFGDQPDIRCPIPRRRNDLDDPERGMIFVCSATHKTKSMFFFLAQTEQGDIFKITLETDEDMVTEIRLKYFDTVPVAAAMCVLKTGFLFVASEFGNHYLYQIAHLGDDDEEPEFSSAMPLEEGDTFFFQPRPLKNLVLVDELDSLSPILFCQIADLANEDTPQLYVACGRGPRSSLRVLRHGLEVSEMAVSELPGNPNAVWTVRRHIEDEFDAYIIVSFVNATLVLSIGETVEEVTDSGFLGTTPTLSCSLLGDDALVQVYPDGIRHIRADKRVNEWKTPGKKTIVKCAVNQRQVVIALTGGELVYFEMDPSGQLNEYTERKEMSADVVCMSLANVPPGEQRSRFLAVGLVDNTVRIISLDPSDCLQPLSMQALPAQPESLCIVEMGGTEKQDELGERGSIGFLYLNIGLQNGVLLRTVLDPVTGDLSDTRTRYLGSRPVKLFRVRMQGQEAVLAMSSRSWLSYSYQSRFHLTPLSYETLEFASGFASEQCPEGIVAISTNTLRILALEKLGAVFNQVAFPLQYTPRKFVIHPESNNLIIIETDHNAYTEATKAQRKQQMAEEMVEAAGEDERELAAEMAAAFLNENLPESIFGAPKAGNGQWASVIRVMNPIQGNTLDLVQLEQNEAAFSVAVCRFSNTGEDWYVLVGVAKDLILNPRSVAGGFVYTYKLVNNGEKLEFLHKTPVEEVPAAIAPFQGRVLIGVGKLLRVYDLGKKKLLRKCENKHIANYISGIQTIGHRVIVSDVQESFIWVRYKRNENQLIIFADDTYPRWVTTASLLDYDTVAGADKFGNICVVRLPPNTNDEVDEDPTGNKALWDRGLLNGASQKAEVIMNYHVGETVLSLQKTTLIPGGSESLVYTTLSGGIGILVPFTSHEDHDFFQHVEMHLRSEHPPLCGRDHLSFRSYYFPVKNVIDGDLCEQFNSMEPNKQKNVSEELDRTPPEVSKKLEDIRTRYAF
UniProt Q8NEM7: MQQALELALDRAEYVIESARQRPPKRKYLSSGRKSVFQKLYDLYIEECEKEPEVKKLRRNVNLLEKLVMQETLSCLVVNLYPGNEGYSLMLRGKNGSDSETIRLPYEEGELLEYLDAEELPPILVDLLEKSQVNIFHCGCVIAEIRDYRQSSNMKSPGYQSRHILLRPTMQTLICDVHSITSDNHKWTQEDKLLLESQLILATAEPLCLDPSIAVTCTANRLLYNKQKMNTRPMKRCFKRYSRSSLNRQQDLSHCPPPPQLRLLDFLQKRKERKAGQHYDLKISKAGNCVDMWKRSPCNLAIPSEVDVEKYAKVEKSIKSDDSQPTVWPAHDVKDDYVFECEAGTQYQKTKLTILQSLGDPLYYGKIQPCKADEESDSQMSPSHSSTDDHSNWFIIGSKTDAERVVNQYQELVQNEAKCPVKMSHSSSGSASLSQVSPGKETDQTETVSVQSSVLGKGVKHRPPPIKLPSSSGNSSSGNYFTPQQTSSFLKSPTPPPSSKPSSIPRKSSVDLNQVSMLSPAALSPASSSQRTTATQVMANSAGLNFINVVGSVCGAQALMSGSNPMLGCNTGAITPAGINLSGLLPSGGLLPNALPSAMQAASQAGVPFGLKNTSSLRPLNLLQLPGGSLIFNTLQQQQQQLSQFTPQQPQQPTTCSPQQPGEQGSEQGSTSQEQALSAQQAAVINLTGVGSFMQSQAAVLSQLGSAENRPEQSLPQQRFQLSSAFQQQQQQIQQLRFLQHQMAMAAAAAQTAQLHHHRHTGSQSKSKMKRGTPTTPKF
UniProt O75529: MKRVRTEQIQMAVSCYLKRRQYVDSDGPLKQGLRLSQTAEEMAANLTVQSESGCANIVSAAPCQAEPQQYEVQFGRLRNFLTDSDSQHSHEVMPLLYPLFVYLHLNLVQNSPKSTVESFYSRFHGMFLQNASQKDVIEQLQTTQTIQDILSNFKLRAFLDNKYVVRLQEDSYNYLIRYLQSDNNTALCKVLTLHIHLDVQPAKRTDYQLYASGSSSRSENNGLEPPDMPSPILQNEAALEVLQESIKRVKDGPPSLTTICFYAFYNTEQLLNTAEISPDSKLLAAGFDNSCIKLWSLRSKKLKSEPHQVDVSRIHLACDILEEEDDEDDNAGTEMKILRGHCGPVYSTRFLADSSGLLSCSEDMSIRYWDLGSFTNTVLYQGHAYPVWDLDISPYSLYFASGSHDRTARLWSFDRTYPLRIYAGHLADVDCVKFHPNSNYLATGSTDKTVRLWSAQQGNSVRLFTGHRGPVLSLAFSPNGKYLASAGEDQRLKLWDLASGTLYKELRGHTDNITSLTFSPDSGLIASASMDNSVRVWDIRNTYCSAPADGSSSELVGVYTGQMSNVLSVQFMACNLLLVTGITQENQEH
UniProt Q96BN2: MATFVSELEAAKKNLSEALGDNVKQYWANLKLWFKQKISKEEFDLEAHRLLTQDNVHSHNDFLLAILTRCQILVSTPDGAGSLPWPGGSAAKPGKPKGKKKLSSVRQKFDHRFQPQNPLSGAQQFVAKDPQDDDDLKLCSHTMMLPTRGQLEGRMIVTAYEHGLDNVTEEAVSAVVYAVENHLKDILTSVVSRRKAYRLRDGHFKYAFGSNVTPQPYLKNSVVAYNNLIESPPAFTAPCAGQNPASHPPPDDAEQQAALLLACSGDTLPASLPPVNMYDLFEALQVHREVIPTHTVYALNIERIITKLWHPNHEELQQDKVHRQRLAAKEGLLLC
UniProt Q16531: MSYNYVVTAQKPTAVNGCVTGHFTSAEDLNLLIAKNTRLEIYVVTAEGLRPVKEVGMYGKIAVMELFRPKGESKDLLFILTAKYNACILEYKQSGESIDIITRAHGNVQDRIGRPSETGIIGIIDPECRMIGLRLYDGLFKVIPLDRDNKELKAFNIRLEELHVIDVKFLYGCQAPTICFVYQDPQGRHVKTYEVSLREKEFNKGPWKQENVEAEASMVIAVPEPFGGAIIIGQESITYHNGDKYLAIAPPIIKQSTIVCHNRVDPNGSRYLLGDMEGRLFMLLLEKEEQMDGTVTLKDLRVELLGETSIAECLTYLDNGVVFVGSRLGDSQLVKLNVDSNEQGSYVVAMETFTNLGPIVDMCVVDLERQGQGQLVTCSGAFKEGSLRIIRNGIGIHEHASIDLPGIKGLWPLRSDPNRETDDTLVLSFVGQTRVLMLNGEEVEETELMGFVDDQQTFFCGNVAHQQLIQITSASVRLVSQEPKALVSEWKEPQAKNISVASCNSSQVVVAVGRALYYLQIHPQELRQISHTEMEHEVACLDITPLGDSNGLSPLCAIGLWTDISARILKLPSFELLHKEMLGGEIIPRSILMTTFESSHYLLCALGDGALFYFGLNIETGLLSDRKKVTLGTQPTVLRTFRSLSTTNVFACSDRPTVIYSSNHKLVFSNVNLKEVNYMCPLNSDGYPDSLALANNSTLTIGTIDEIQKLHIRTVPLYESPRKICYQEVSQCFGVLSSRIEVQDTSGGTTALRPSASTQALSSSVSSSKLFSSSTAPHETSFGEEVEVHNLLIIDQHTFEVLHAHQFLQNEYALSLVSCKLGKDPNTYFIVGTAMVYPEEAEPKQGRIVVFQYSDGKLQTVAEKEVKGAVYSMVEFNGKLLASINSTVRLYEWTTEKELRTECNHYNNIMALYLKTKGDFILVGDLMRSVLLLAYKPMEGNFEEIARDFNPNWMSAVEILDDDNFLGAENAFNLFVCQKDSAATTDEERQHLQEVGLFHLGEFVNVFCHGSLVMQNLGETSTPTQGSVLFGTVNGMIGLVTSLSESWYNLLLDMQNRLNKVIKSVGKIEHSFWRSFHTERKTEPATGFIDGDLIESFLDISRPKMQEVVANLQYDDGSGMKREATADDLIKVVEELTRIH

Results are given in words; binding and its absence hold for the method and conditions named. In cells and extracts the contact can be indirect. Here binding means that the protein was enriched with, or labelled near, the bait; the list need not be complete. No binding means not detected with the bait.

As to TAF12 (from UniProt Q16514 1-161), the binding result is on record as “binds”. Then SUPT3H (from UniProt O75486 1-317), with “binds”. Take SF3B3 (from UniProt Q15393 1-1217): the binding entry is given as “binds”. Then SUPT20H (from UniProt Q8NEM7 1-779), with “binds”; and TAF5L (from UniProt O75529 1-589), with “binds”. Regarding TADA1 (from UniProt Q96BN2 1-335), the binding entry is recorded as “binds”. The same measure for DDB1 (from UniProt Q16531 1-1140): “no binding”.

For the origin of these results see article PMC8660637.
